No constants are given. Whether binding was seen depends on the method and setting. Binding seen in cells or lysates may run through a third protein. Binding calls can cover weak binding; strength is not graded here. Where a sequence is shown, tags or fusion partners need not be part of it.
Target: T1, BTG3 of the co-IP with GFP-TRIM65 and its deletion mutants (UniProt Q14201)
T1 sequence: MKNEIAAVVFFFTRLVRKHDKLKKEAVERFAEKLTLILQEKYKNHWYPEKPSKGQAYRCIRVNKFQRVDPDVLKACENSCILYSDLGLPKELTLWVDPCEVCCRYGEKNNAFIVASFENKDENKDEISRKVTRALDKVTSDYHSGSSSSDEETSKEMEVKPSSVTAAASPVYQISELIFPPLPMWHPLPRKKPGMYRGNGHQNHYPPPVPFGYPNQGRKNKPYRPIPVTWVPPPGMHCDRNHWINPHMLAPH
Assay: co-IP; GFP-TRIM65 and its deletion mutants with BTG3, following MG132 treatment; cell line not stated

binding: binds
Substance: GFP-SPRY (SPRY domain of TRIM65) (human) (domain or fragment)

Reference: article PMC11111765
